Experimental data: article PMC11753425
No constants are given. Whether binding was seen depends on the method and setting. Sequences can lack the tags named with a protein.

Molecular target: full-length OrfG (BACTH fusion) (Streptococcus thermophilus)
Assay: two-hybrid; bacterial two-hybrid (BACTH), T18 and T25 fusions co-expressed in E. coli DHT1, 30°C, X-Gal plates and β-galactosidase activity

B1: OrfE (BACTH fusion) (protein, UniProt Q935T1 1-125)
chain: MTNERLYDYSKGLNAPYWIQEIKTKKGIRLWYFATPMQLSFFIVFTFVFVAMLLFGGFILVPLAKFTHSISLLLYWYLPYKLAKFYTEYEPHGKKMHVFIGDCLIYFWDFKLNKKAIYHEDRIDQ
binding: no binding
